Each number is a percent effect as filed. The controls that fix the scale are not given in the record; negative values are as filed. Compounds were drawn at random from those tested, without regard to their results.

Sequences of proteins named here, by UniProt entry; tags and fusion partners are left off. Residues count along the entry.
UniProt A4I591, 1-473: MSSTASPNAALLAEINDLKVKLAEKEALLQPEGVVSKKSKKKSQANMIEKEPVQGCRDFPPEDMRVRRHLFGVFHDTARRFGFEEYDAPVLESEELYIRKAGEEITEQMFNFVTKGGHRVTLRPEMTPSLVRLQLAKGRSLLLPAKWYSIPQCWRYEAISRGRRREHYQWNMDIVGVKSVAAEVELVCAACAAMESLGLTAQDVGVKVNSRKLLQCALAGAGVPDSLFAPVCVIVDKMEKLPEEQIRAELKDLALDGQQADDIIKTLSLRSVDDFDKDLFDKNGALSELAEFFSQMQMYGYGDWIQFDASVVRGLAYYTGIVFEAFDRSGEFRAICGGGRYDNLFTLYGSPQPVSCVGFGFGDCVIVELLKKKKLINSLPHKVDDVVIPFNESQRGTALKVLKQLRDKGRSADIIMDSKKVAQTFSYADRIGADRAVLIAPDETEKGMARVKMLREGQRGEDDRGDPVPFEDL

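Histidine-tRNA ligase, Leishmania infantum (UniProt A4I591). Enzyme assay of histidyl-tRNA synthetase; the read-out is not stated. Compounds at 30 µM. The record gives no direction; compounds that gave an IC50 in retests scored well above the rest, so higher reads as stronger inhibition. The assay is labelled LdHisRS but filed under L. infantum. Size under these conditions: about 69,000 compounds, about 410 of them at 50% or above in at least one test.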

structure,Percent Effect
OC1(CNCCc2csc(-c3ccncc3)n2)CCCNC1 (centres undefined),21.52
Cc1cc(N2CCC3(CCC(=O)N(CCCO)C3)CC2)nc(N(C)C)n1,20.51
O=C(C1CC(F)(F)C1)N1C[C@@H]2CN(CC3CC3)CCO[C@@H]2C1,0
CC(C(=O)NCCCn1ccnc1)n1cc(Br)cn1 (centres undefined),17.92
CC(CO)NC(=O)c1ccc2[nH]/c(=N\S(C)(=O)=O)sc2c1 (centres undefined),19.57
COc1ccc(-c2nc(CN3CC(n4nc(C)cc4C)C3)no2)cc1,6.604
COCc1cn(C[C@H]2CC3CCN2C[C@@H]3C(=O)Nc2ccccc2)nn1 (some centres undefined),0
Cc1nnc2n1CCN(C(=O)CN1C(=O)CSc3ccccc31)C2,12.07
N#Cc1cccc(OCCN2CCOC(Cn3cccn3)C2)c1 (centres undefined),9.649
FC(F)(F)COc1cccc(-c2nc3c([nH]2)CCNC3)c1,13.27
Cc1ccc(CCNC(=O)c2cccnc2)o1,13.33
c1cnn(Cc2nnc(C3CCN(C4CCOCC4)CC3)n2C2CC2)c1,18.45
Cn1nc(N2CCCC(C(=O)Nc3nc4ccccc4[nH]3)C2)ccc1=O (centres undefined),28.57
Cc1noc(C)c1CN1C(=O)[C@H]2CC[C@@H]1CN(Cc1cscn1)C2,15.15
CC(C)Oc1cccc(F)c1C(C(=O)O)N(C)Cc1ccon1 (centres undefined),8.791
CNC(=O)C1=NOC2(CCN(Cc3nccs3)C2)C1 (centres undefined),5.455
CCOCc1ncn2c1CN(C(=O)Nc1ccccc1CC)CC2,5.479
O=C(c1cc(COc2ccc3c(c2)OCO3)[nH]n1)N1CCSCC1,17.74
NC(=O)CCc1cccc(C2CCNCC2)n1,4.225
COc1cc(CNc2ccccc2Cl)ccc1OCC(=O)O,-33.33
CNc1cc(CCNS(=O)(=O)c2ccccc2)nc(-c2ccccn2)n1,8.451
CNC(=O)CN1CCC(NC(=O)Cn2cc(C)c3ccccc32)CC1,12.12
O=C1NC2(CCN(C/C=C/c3ccccc3)CC2)CC1c1ccccc1 (centres undefined),25.64
Cc1ccc(SCC2CNc3nc4ccccc4c(=O)n32)c(C)c1 (centres undefined),21.95
CCNC(=O)N1CCc2ccc(NC(=O)NCC3CC3)cc21,21.95
Cc1ccc(N2CCCC(NCc3cscn3)C2)nn1 (centres undefined),35.71
O=S1(=O)CCN(Cc2cccnc2)[C@H]2CCN(c3ncccn3)CC[C@H]21,-25
Cc1cnn(C2CCCN(C(=O)c3ccc(NC4CC4)nc3)C2)c1 (centres undefined),13.91
COC(=O)C1CN(Cc2cc(F)ccc2Br)CCO1 (centres undefined),9.804
CN(C)c1ncnc2c1CCN(c1cccc(F)c1)CC2,26
COCCN1CCN(Cc2ccncc2)[C@H]2CS(=O)(=O)C[C@H]21,17.14
COCCCN1Cc2cccc(NC(=O)c3cc(F)cc(F)c3)c2C1,20.54
O=C(Nc1ccc2scnc2c1)N1CCN([C@H]2CCCC[C@@H]2O)CC1,19.15
Cc1nc(-c2cc(Cl)cc3c2OC(CN)C3)c[nH]1 (centres undefined),24.6
O=C(CCc1ccccc1Cl)NS(=O)(=O)c1ccc2c(c1)OCCO2,7.143
O=C(N[C@]12CC1CN(C(=O)c1ccco1)C2)c1ccoc1 (some centres undefined),9.709
CCc1nccn1C1CCCN(C(=O)C2=NN(C)C(=O)CC2)C1 (centres undefined),13.16
CSCC(CCO)NC(=O)Nc1ccc(C)cc1C (centres undefined),8.434
CCNC(=O)C1CCN(Cc2ccc(C(=O)Nc3nnc(C)s3)cc2)C1 (centres undefined),20
O=S(=O)(NCCn1ccc(-c2ccncc2)n1)C1CC1,8.475
Cc1ccc2[nH]c(=O)c(CN(C)Cc3cc(C4CC4)[nH]n3)cc2c1,25
Cc1cccc(NC(=O)NCCCn2nc3ccccn3c2=O)c1C,35.71
CCCN(c1ccccc1C(=O)O)S(=O)(=O)c1cccc2cccnc12,17.65
CN(C)C[C@H]1C[C@@H]2CN(Cc3ccco3)C[C@@H]2O1,7.692
Cc1cnn(CC2CCCN2Cc2nc(N)c3ccccc3n2)c1 (centres undefined),12.5
CN1CC(c2ccccc2)CC2(CCN(Cc3ncc[nH]3)CC2)C1 (centres undefined),15.69
Cc1cc(C)n(C2CCN(C(=O)CN3C(=O)CSc4ccccc43)C2)n1 (centres undefined),17.2
Cc1csc(C(C#N)C(=O)NCc2ccccc2)n1 (centres undefined),7.692
N#CCSCCCN1CCCN(C(=O)c2ccccc2)CC1,1.905
O=C(NCc1ccc2c(c1)OCO2)Nc1cccnc1N1CCCC1,14.91
C[C@H]1C[C@@H]2CCN(Cc3ccco3)C[C@H]2O1,8.257
COc1ccc(CCC(=O)NCCC2CCCO2)cc1Br (centres undefined),11.29
O=C(c1ccc(F)cc1)N1C[C@@H]2COC[C@]2(COc2cccnc2)C1,19.09
CCC(CO)N(C/C(C)=C/c1ccco1)Cc1ccsc1 (centres undefined),14.75
Cc1ncnc2c1CCN(C(=O)c1ccoc1)CC2,29.73
O=C(O)CCc1cccc(C2CCCN2Cc2cccc(Cl)c2)n1 (centres undefined),11.46
CC(C)c1nnc2n1CCN(C(=O)c1ccc(OCC3CC3)cc1)C2,11.57
Cc1ccc(Oc2ncccc2CNC2CCCCC2)cn1,3.279
CC(C)N1CCC(C(=O)N2CCCN(c3ccccc3)CC2)CC1,19.58
O=C(O)c1cc(-n2cc3c(n2)CCC3)cc(S(=O)(=O)NC2CCCC2)c1,27.42
Cc1nc(CN2CCCC(N(C)CCOCC(F)(F)F)C2)no1 (centres undefined),16.36
COc1c(C2CCCN2C(=O)c2cc(Cl)c[nH]2)c(C)nn1C (centres undefined),21.15
CCOc1ccnc(N[C@@H](Cc2ccccc2)C(N)=O)n1,1.429
COc1ccc(CN(CC2CCCO2)C(=O)CN2CCOC2=O)cc1 (centres undefined),12.77
Cc1nc(N)nc(C)c1CC(=O)N1CCCCC1c1cccc(F)c1 (centres undefined),19.35
Cc1ccc(C)c(CSc2nnc(C(N)C(C)C)o2)c1 (centres undefined),-10.87
CCc1ccc(CN2CCCCC2c2n[nH]cc2-c2cc(C)no2)cc1 (centres undefined),-22.86
COC(=O)c1cccn1C1CCN(C(=O)c2cn[nH]c2C)CC1,19.18
CC(C)CCN1C[C@H]2C[C@H](C(=O)NCc3ccccc3)[C@@H](C1)O2,5.455
COCCN1CCC2(CC1)CN(CCn1cccn1)C(=O)CO2,16.24
Cc1nn(C)c(N2CCOCC2)c1CNC1CCOc2ccccc21 (centres undefined),19.1

The last 4 entries again:

| structure | Percent Effect |
|---|---|
| `COC(=O)c1cccn1C1CCN(C(=O)c2cn[nH]c2C)CC1` | 19.18 |
| `CC(C)CCN1C[C@H]2C[C@H](C(=O)NCc3ccccc3)[C@@H](C1)O2` | 5.455 |
| `COCCN1CCC2(CC1)CN(CCn1cccn1)C(=O)CO2` | 16.24 |
| `Cc1nn(C)c(N2CCOCC2)c1CNC1CCOc2ccccc21` (centres undefined) | 19.1 |

The values are deposited in ChEMBL (CHEMBL3988442, “University of Dundee, Small-Polar-MMV Screening Library” (2021)).